Measurements taken from PubChem BioAssay AID2685 (National Center for Advancing Translational Sciences (NCATS), 2010).
Some of the results follow. Shown are side measurements of this screen, not its main read-out; they come without a call. The list favours compounds with an active or inconclusive main result. Potencies come from curve fits of mixed quality, noted in brackets.

Experiment: qHTS Assay for Lipid Storage Modulators in Drosophila S3 Cells;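 on cell number change: cells counted by Cell Tracker Red CMTPX staining in the red channel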
Settings: BODIPY lipid droplet fluorescence, 18-24 h; for cell number change: measured here: cell count max response, cells fed with added oleic acid
Summary of the method: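 Drosophila S3 cells got compounds at several concentrations plus oleic acid (400 uM solution). Laser-scanning cytometry with 488 nm excitation read lipid droplets at 500-530 nm and cells at 575-640 nm. Percent activity was relative to 20 uM Triacsin C.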

[1] = measured here: lipid fluorescence (Fed channel) AC50, cells fed with added oleic acid
[2] = measured here: cell number channel AC50, cells fed with added oleic acid

| SMILES | cell number change [%] | AC50 [1] | AC50 [2] |
| --- | --- | --- | --- |
| Cc1ccc(SCC(=O)c2ccc[nH]2)cc1 | 34.3 | – | – |
| Brc1ccc(Oc2nsnc2N2CCOCC2)cc1 | 11.8 | 4.61 µM [rising, full curve, poor fit] | – |
| O=C(c1ccccc1)c1cc2ccccc2oc1=O | – | – | 6.51 µM [rising, single point] |
| CCOc1cccc(=O)c2c(C)n(Cc3ccccc3)c(C)c12 | 31.7 | – | 32.6 µM [rising, single point] |
| COCC(=O)Nc1ccc(S(=O)(=O)Nc2nccs2)cc1 | 6.74 | 0.517 µM [rising, full curve, poor fit] | – |
| CC(=O)n1cc(N(C(=O)CCl)c2ccc(Cl)cc2)c2ccccc21 | -52 | – | 32.6 µM [falling, partial curve, poor fit] |
| O=C(Nc1ccc2c(c1)Cc1ccccc1-2)c1ccco1 | – | – | 0.651 µM [rising, partial curve] |
| O=C1Nc2cc(C(=O)NCCCN3CCOCC3)ccc2S/C1=C/c1cccc(Cl)c1 | -8.26 | 18.4 µM [rising, single point] | – |
| Cc1ccc(NC(=O)Cn2nc(C(=O)O)c3ccccc3c2=O)cc1S(=O)(=O)N1CCOCC1 | -16.4 | 0.326 µM [rising, full curve, poor fit] | – |
| CCOc1ccc(CCNC(=O)CCc2nnc3ccc(N4CCOCC4)nn23)cc1 | 19.6 | 29.1 µM [rising, single point] | – |
| COc1ccc(-n2c(=S)[nH]c3cc(C(=O)NCCCN4CCCC4=O)ccc3c2=O)c(OC)c1 | 30.9 | 29.1 µM [rising, single point] | 29.1 µM [rising, single point] |
| O=C(Nc1cccc(Br)c1)c1ccc2snnc2c1 | – | 29.1 µM [falling, single point] | – |
| O=C(CSc1nnnn1-c1ccccc1)Nc1nc(-c2ccccc2)ns1 | 99.8 | 6.51 µM [rising, single point] | 16.4 µM [rising, partial curve] |
| COc1ccc(CN2CCN(Cc3ccc(CO)o3)CC2CCO)cc1C (stereo unspecified) | 11 | – | – |
| NN/C(=C\[N+](=O)[O-])Nc1ccc(Cl)cc1 | 39.3 | – | – |
| COc1ccc(C(C)=O)cc1CSc1nnc(Nc2c(C)cccc2C)s1 | – | – | 0.731 µM [rising, single point] |
| CCOC(=O)/C=C1\SCC(=O)N1CC(=O)NCc1cccc(Cl)c1 | 16.3 | 7.31 µM [rising, partial curve, poor fit] | – |
| COc1ccc([N+](=O)[O-])cc1NC(=O)c1csc(C)c1 | 34.6 | – | 25.9 µM [rising, single point] |
| CC1=NN(C(=O)c2nn(C)cc2Br)C(O)(C(F)(F)F)C1 (stereo unspecified) | 12.6 | 0.0291 µM [rising, full curve, poor fit] | – |

A draw from above in order of number of heavy atoms, rising:

| SMILES | cell number change [%] | AC50 [1] | AC50 [2] |
| --- | --- | --- | --- |
| NN/C(=C\[N+](=O)[O-])Nc1ccc(Cl)cc1 | 39.3 | – | – |
| Brc1ccc(Oc2nsnc2N2CCOCC2)cc1 | 11.8 | 4.61 µM [rising, full curve, poor fit] | – |
| COc1ccc(-n2c(=S)[nH]c3cc(C(=O)NCCCN4CCCC4=O)ccc3c2=O)c(OC)c1 | 30.9 | 29.1 µM [rising, single point] | 29.1 µM [rising, single point] |

Later entries:

| SMILES | cell number change [%] | AC50 [1] | AC50 [2] |
| --- | --- | --- | --- |
| N=C1CCC(=N)c2c1c(O)c1ccccc1c2O | 6.06 | 20.6 µM [falling, single point] | – |
| O=C(/C(=C/c1cccc(Cl)c1)c1nc2ccccc2[nH]1)c1ccccc1 | – | 14.6 µM [falling, partial curve] | – |
| C/C(=N\NC(=O)CSc1nc2ccccc2o1)c1cccc(O)c1 | -29.8 | 10.3 µM [falling, partial curve] | – |
| O=C(Cc1cn2ccsc2n1)Nc1ccccc1Oc1ccccc1 | 10.2 | 10.3 µM [rising, partial curve] | – |
| Cn1c(=NC(=O)CS(=O)(=O)c2ccccc2)sc2ccccc21 | – | – | 6.51 µM [rising, single point] |
| O=C(NCc1cccnc1)Nc1cccc(C(F)(F)F)c1 | 4.95 | 29.1 µM [falling, single point] | – |
| C=C(C)[C@@H]1CC[C@]2(C(=O)O)CC[C@]3(C)[C@H](CC[C@@H]4[C@@]5(C)CC[C@H](O)C(C)(C)[C@@H]5CC[C@]43C)[C@@H]12 | -31.4 | – | 3.26 µM [falling, full curve] |
| N#CCCn1cc(/C=N/NC(N)=S)c(-c2ccc(Br)cc2)n1 | -23 | 0.326 µM [falling, full curve, poor fit] | 0.164 µM [falling, full curve, poor fit] |
| COC(=O)N/N=C/c1cn(Cc2ccccc2F)c2ccccc12 | 31.2 | – | 4.11 µM [rising, full curve] |
| CCc1ccccc1-n1nnnc1-c1cnccc1C(F)(F)F | 24.1 | 5.17 µM [falling, single point] | 2.91 µM [falling, partial curve] |
| Cc1ccc(CS(=O)(=O)c2ncc(Cl)c(C(=O)Nc3ccc(OC(F)F)cc3)n2)cc1 | – | 2.59 µM [falling, full curve] | – |
| CC(=O)Nc1ccc(OC(=O)Oc2ccc(NC(C)=O)cc2)cc1 | – | 2.06 µM [rising, partial curve] | 1.46 µM [rising, partial curve] |
| CC(C)C(NC(=O)c1ccccc1F)C(=O)OCC(=O)c1ccc(F)cc1 (stereo unspecified) | -15.5 | – | 0.0517 µM [falling, partial curve, poor fit] |
| CC1CCCN(C2(O)C(=O)Nc3ccc(Cl)cc32)C1 (stereo unspecified) | 22.5 | 2.59 µM [rising, single point] | – |
| COc1cc(NC(=O)CSc2nc(=O)n(CCCN3CCOCC3)c3c2CCC3)cc(OC)c1 | 25 | – | 0.366 µM [rising, full curve, poor fit] |
| C=CCOC(=O)C1=C(C)NC(SCC(=O)Nc2ccccc2)=C(C#N)C1c1ccco1 (stereo unspecified) | -78.8 | 10.3 µM [falling, partial curve] | 4.61 µM [falling, partial curve] |
| O=C(CSc1nnc(CN2CCCCCC2=O)n1-c1ccccn1)NCC(F)(F)F | -53.5 | 29.1 µM [falling, single point] | 5.17 µM [falling, single point] |
| COC(=O)Cn1c(CN(C)Cc2ccccc2)nc2c1c(=O)n(C)c(=O)n2C | -33.7 | 0.0231 µM [falling, full curve] | 14.6 µM [falling, partial curve, poor fit] |
